From the supplement of paper PMC12542422 come the findings set out here.

Counter-ions that a name gives are not always drawn. ± gives the standard deviation of the averaged measurements. The list shows a part of the results. These are raw signals, not scaled to a control.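 HeLa cells imaged for ribosome-assembly readouts (ENP1 staining with or without export block, or inducible tagged ribosomal protein reporters); machine learning classified each cell's signal location against solvent (DMSO) controls. Hits exceeded the DMSO false-positive mean by five standard deviations, then were visually confirmed; three biological replicates.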

The subject of assay [1] is HeLa K (ENP1 immunofluorescence, +LMB). Nature of the assay: fraction of cells with nucleolar or nucleolar/nucleoplasmic ENP1 signal (MainHitrate); higher = more cells with nucleolar/nuclear readout signal (for ENP1 -LMB: less RNAPI inhibition; for +LMB ENP1 and RP reporters: stronger nuclear/nucleolar retention, i.e. ribosome biogenesis defect). Conditions: concentration: 1 µM; treatment time: 6 h; ENP1 +LMB; leptomycin B: 20 nM, last 1.5 h.

The subject of assay [2] is HeLa K (ENP1 immunofluorescence, no LMB). The description is as above. The note with it: concentration: 1 µM; treatment time: 6 h; ENP1 -LMB; leptomycin B: none.
A further assay concerns HeLa RPS2-YFP reporter. Nature of the assay: fraction of reporter-positive cells with nuclear (nucleolar or nucleolar/nucleoplasmic) RPS2-YFP (MainHitrate); higher = more cells with nucleolar/nuclear readout signal (for ENP1 -LMB: less RNAPI inhibition; for +LMB ENP1 and RP reporters: stronger nuclear/nucleolar retention, i.e. ribosome biogenesis defect). The note with it: concentration: 1 µM; treatment time: 6 h.

A further assay has as its system HeLa RPL29-GFP reporter. Put plainly: fraction of reporter-positive cells with nuclear (nucleolar or nucleolar/nucleoplasmic) RPL29-GFP (MainHitrate); higher = more cells with nucleolar/nuclear readout signal (for ENP1 -LMB: less RNAPI inhibition; for +LMB ENP1 and RP reporters: stronger nuclear/nucleolar retention, i.e. ribosome biogenesis defect). The note with it: concentration: 1 µM; treatment time: 6 h.

Turning to `Nc1nc(F)nc2c1ncn2[C@@H]1O[C@H](CO)[C@@H](O)[C@@H]1O` [Fludarabine (Fludara)], the fraction was 0.0708 ± 0.042 in assay [1] and 0.9982 ± 0.003 in assay [2]. Besides, the “fraction of reporter-positive cells with nuclear” value (from here on “fraction … with nuclear”) came out at 0.106 ± 0.089 in the assay on HeLa RPS2-YFP reporter and 0.199 ± 0.035 with HeLa RPL29-GFP reporter.
The like results for `CN(C)CCC=C1c2ccccc2CCc2ccccc21` [Amitriptyline HCl] were, in that order, 0.0649 ± 0.09, 0.992 ± 0.014, 0.119 ± 0.1 and 0.207 ± 0.047.
For the compound `CCOC(=O)c1c(CSc2ccccc2)n(C)c2cc(Br)c(O)c(CN(C)C)c12` [Arbidol HCl], the fraction is 0.103 ± 0.13 in assay [1] and 0.989 ± 0.018 in assay [2]. Moreover, the “fraction … with nuclear” value was found to be 0.1 ± 0.071 in the assay with HeLa RPS2-YFP reporter and 0.27 ± 0.068 with HeLa RPL29-GFP reporter.
For the compound `COC(=O)C1=C(C#N)NC(C)=C(C(=O)OC(C)C)C1c1cccc([N+](=O)[O-])c1` (configuration not stated) [Nilvadipine (ARC029)], the fraction in assay [1] was 0.0542 ± 0.076; in assay [2], 0.98 ± 0.035. The “fraction … with nuclear” value turned out to be 0.138 ± 0.087 in the assay with HeLa RPS2-YFP reporter and 0.257 ± 0.093 with HeLa RPL29-GFP reporter.
Take `CCN1CCN(C(=O)N[C@@H](C(=O)N[C@@H]2C(=O)N3C(C(=O)O)=C(CSc4nnnn4C)CS[C@H]23)c2ccc(O)cc2)C(=O)C1=O` [Cefoperazone (Cefobid)]: the values for the fraction in assay [1] and in assay [2] were 0.0689 ± 0.07 and 0.9983 ± 0.0029, respectively. Besides, the “fraction … with nuclear” value in the assay with HeLa RPS2-YFP reporter amounted to 0.0973 ± 0.043; in the assay on HeLa RPL29-GFP reporter, 0.221 ± 0.05.
Taken in the same sequence, the figures for `C[C@@H]1O[C@@H]1P(=O)(O)O` [Fosfomycin Tromethamine] were 0.133 ± 0.14, 0.9985 ± 0.0025, 0.176 ± 0.18 and 0.273 ± 0.17.
Taken in the same sequence, the figures for `CNC1CCCN(c2c(F)cc3c(=O)c(C(=O)O)cn(C4CC4)c3c2OC)C1` (configuration not stated) [Balofloxacin] were 0.118 ± 0.17, 0.987 ± 0.023, 0.113 ± 0.069 and 0.228 ± 0.06.
As to `CNCC(O)c1ccc(O)c(O)c1` (racemic) [DL-Adrenaline], the fraction in assay [1] came out at 0.121 ± 0.17; in assay [2], 0.99 ± 0.017. Moreover, the entries for the “fraction … with nuclear” value with HeLa RPS2-YFP reporter and in the assay with HeLa RPL29-GFP reporter were 0.105 ± 0.078 and 0.213 ± 0.049, respectively.
For `CCCCCCCCCCCC[N+](C)(C)CCOc1ccccc1` [Domiphen Bromide], the fraction stood at 0.0425 ± 0.059 in assay [1] and 0.993 ± 0.013 in assay [2]. Also, the “fraction … with nuclear” value was determined as 0.14 ± 0.085 in the assay on HeLa RPS2-YFP reporter and 0.199 ± 0.046 with HeLa RPL29-GFP reporter.
Taken in the same sequence, the figures for `O=C1CN2Cc3c(ccc(Cl)c3Cl)N=C2N1` [Anagrelide HCl] were 0.0693 ± 0.099, 0.975 ± 0.043, 0.17 ± 0.13 and 0.214 ± 0.08.
`CCc1cc(C(N)=S)ccn1` [Ethionamide]: the figures for the fraction in assay [1] and in assay [2] were 0.0735 ± 0.094 and 0.9988 ± 0.0022, respectively. Besides, the “fraction … with nuclear” value with HeLa RPS2-YFP reporter was 0.101 ± 0.057; in the assay on HeLa RPL29-GFP reporter it was 0.221 ± 0.079.
The like results for `C[C@@]12C[C@@]3(O)O[C@@H](O1)[C@]1(COC(=O)c4ccccc4)[C@H]3C[C@@]12O[C@@H]1O[C@H](CO)[C@@H](O)[C@H](O)[C@H]1O` [Paeoniflorin] were, in that order, 0.177 ± 0.28, 0.993 ± 0.012, 0.116 ± 0.078 and 0.215 ± 0.09.
The like results for `C=C[C@]1(C)C[C@@H](OC(=O)CSC(C)(C)CNC(=O)[C@H](N)C(C)C)[C@]2(C)[C@H](C)CC[C@]3(CCC(=O)[C@H]32)[C@@H](C)[C@@H]1O` [Valnemulin HCl] were, in that order, 0.0647 ± 0.088, 0.986 ± 0.024, 0.124 ± 0.085 and 0.194 ± 0.046.
The like results for `O=C(Nc1ccccc1)c1ccccc1O` [Salicylanilide] were, in that order, 0.0445 ± 0.057, 0.984 ± 0.028, 0.115 ± 0.071 and 0.221 ± 0.065.
Consider `Cc1cc2nc3c(=O)[nH]c(=O)nc-3n(C[C@H](O)[C@H](O)[C@H](O)CO)c2cc1C` [Riboflavin (Vitamin B2)], for which the fraction in assay [1] was 0.137 ± 0.2; in assay [2], 0.994 ± 0.011. For the same compound, the “fraction … with nuclear” value in the assay with HeLa RPS2-YFP reporter was found to be 0.127 ± 0.11; with HeLa RPL29-GFP reporter, 0.246 ± 0.1.
Take `CN(C)CC/C=C1/c2ccccc2COc2ccc(CC(=O)O)cc21` [Olopatadine hydrochloride (Opatanol)]: the fraction in assay [1] worked out at 0.0896 ± 0.12; in assay [2], 0.994 ± 0.011. In addition, the “fraction … with nuclear” value is 0.093 ± 0.068 in the assay with HeLa RPS2-YFP reporter and 0.239 ± 0.072 in the assay with HeLa RPL29-GFP reporter.
Taken in the same sequence, the figures for `CCN1CCN(c2cc3c(cc2F)c(=O)c(C(=O)O)cn3C2CC2)CC1` [Enrofloxacin] were 0.0643 ± 0.076, 0.985 ± 0.025, 0.126 ± 0.097 and 0.22 ± 0.068.
Taken in the same sequence, the figures for `COc1ccccc1OCC(O)CO` (configuration not stated) [Guaifenesin (Guaiphenesin)] were 0.0986 ± 0.097, 0.9986 ± 0.0024, 0.114 ± 0.076 and 0.224 ± 0.072.
On to `O=P(O)(O)C(O)(Cc1cccnc1)P(=O)(O)O` [Risedronate sodium], for which the values for the fraction in assay [1] and in assay [2] were 0.108 ± 0.12 and 0.9982 ± 0.0031, respectively. Also, the “fraction … with nuclear” value in the assay on HeLa RPS2-YFP reporter is 0.104 ± 0.049; in the assay with HeLa RPL29-GFP reporter, 0.198 ± 0.085.
Taken in the same sequence, the figures for `COC1=C(OC)C(=O)C(CCCCCCCCCCO)=C(C)C1=O` [Idebenone] were 0.109 ± 0.15, 0.98 ± 0.034, 0.0908 ± 0.073 and 0.203 ± 0.09.
Taken in the same sequence, the figures for `CC(C)NCC(O)COc1ccc(CCOCC2CC2)cc1` (configuration not stated) [Betaxolol (Betoptic)] were 0.0665 ± 0.091, 0.992 ± 0.013, 0.111 ± 0.1 and 0.228 ± 0.077.
Taken in the same sequence, the figures for `CN(C)CC/C=C1/c2ccccc2Sc2ccc(Cl)cc21` [Chlorprothixene] were 0.0873 ± 0.11, 0.9989 ± 0.0019, 0.109 ± 0.052 and 0.218 ± 0.063.
As for `N#C[C@@H]1CCCN1C(=O)CNC12CC3CC(CC(O)(C3)C1)C2` [Vildagliptin (LAF-237)], the fraction is 0.114 ± 0.14 in assay [1] and 0.9985 ± 0.0027 in assay [2]. Moreover, the “fraction … with nuclear” value with HeLa RPS2-YFP reporter was 0.135 ± 0.099; with HeLa RPL29-GFP reporter, 0.201 ± 0.088.
